Results are given in words; binding and its absence hold for the method and conditions named. In cells and extracts the contact can be indirect. A result given as binding can be weak or reduced; the word gives no strength. Where a sequence is shown, tags or fusion partners need not be part of it.
Target: human LGN (residues 1-677) with a C-terminal FLAG-tag (human)
Assay: co-IP; HEK293T transfected with Par3-GFP, FLAG-LGN and HA-Insc, mitotic (nocodazole) lysates, anti-FLAG sepharose beads

binding: binds
B1: human Insc (residues 1-532) with an N-terminal HA-tag (protein, UniProt Q1MX18-2 1-532)
chain: MMALPGGRHLDSVTLPGQRLHLMQVDSVQRWMEDLKLMTECECMCVLQAKPISLEEDAQGDLILAGGPGPGDPLQLLLKRGWVISTELRRIGQKLAQDRWARVHSMSVRLTCHARSMVSEYSAVSRNSLKEMGEIEKLLMEKCSELSAVTERCLQVENEHVLKSMKACVSETLSMLGQHFGQLLELALTREVQALVRKIDASDNIYTTESTTGNLFSLTQEGAPLCRIIAKEGGVVALFKVCRQDSFRCLYPQALRTLASICCVEEGVHQLEKVDGVLCLADILTDNSHSEATRAEAAAVVAQVTSPHLPVTQHLSSFLESMEEIVTALVKLCQEASSGEVFLLASAALANITFFDTMACEMLLQLNAIRVLLEACSDKQRVDTPYTRDQIVTILANMSVLEQCASDIIQENGVQLIMGMLSEKPRSGTPAEVAACERVQQKAAVTLARLSRDPDVAREAVRLSCMSRLIELCRSPSERNSSDAVLVACLAALRRLAGVCPEGLQDSDFQQLVQPRLVDSFLLCSNMEESFV

Source: PMC5844954
